Measured values taken from PubChem BioAssay AID1439 (NMMLSC, 2008).
In all, about 220,000 compounds went through this assay and about 770 (0.35%) were called active. Inconclusive means that the source gave no clear call. Such entries were picked first, then a sample of the others. Cut-off read from the data, not from the text of the source: active = binding response below about 49% or above about 150%; inconclusive = no clear call, values can overlap the other calls; inactive = in between.

Protein sequences, listed by entry. Tags and fused reporters are not part of them.
UniProt P09471, whole entry, looked up: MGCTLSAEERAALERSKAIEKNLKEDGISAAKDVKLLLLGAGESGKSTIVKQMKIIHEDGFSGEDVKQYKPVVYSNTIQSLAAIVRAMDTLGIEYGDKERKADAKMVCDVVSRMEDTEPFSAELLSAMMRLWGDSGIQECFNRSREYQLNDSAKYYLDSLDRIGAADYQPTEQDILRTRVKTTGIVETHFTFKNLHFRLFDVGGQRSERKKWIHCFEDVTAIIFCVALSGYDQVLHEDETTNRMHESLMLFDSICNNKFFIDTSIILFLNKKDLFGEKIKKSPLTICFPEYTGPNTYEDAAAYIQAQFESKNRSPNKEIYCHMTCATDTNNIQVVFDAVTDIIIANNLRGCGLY

Molecular target: Guanine nucleotide-binding protein G(o) subunit alpha (Homo sapiens) (UniProt P09471)
Assay: RGS7-Galphao binding modulators, primary screen, biochemical, multiplexed bead flow cytometry (AID 1439);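 note: fluorescent Galphao held in activated GDP-AlF4 state binding bead-coupled RGS7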
Settings: at 10 µM, actives lie on both sides

| SMILES | binding response (% of control) |
| --- | --- |
| Cc1ccc(C)c2c1c1ccccc1n2C | inconclusive: 126% |
| COc1ccc(C)c2sc(NC(=O)C3=COCCO3)nc12 | active: 313% [activator] |
| COc1c(NC(C)=O)c2ccccc2c2ccccc12 | inconclusive: 80.9% |
| CC1Oc2ccccc2N(CC(=O)NCc2ccc3c(c2)OCO3)C1=O (stereo not given) | inactive: 102% |
| Clc1ccc(C2=NN(c3ccccc3)C(c3ccco3)C2)cc1 (stereo not given) | inconclusive: 87.1% |
| COc1ccccc1NC(=O)Oc1cccc(OC(=O)c2ccccc2)c1 | inconclusive: 41.4% |
| CS(=O)(=O)N(CC(=O)NCc1ccco1)c1ccc(OCc2ccccc2)cc1 | inconclusive: 122% |
| CC(C)(C)NC(=O)COc1ccccc1C#N | inconclusive: 108% |
| CC1(C(=O)OCC(=O)Nc2cccc(S(=O)(=O)NC3=NCCCCC3)c2)CC1(Cl)Cl (stereo not given) | inconclusive: 120% |
| COc1cccc(/C=N/NC(=O)c2ccccc2NC(=O)c2ccco2)c1OC | inconclusive: 91.2% |
| Cc1ccccc1/C=C/c1nc2ccccc2c(=O)[nH]1 | inconclusive: 269% |
| CSc1sc(-c2nnc(SCC(=O)Nc3ccc(Cl)cc3)n2C)c2c1C=CCC2 | inconclusive: 97.6% |
| O=C(O)CCC(=O)Nc1ccc(Br)cc1C(=O)c1ccccc1Cl | inconclusive: 168% |
| CCOc1cc(/C=C(/NC(C)=O)C(=O)O)cc(Cl)c1OCc1ccc(Br)cc1 | inconclusive: 64.3% |
| NC(=O)[C@@H]1[C@@H]2C(=O)N(c3ccc(F)cc3)C(=O)[C@@H]2[C@H]2C=Cc3ccccc3N21 | inconclusive: 93.4% |
| CCCN(CCC)CCCNC(=S)Nc1ccc2nc(N3CCN(C)CC3)cc(C)c2c1 | inconclusive: 79.6% |
| CCCn1c(N)nc2ccccc21 | inactive: 115% |
| CCC1CCC2(CC1)SCC(=O)N2c1ccccc1 (stereo not given) | inconclusive: 204% |
| COc1ccccc1NC1=Nc2cccc3cccc1c23 | inconclusive: 94.6% |
| Cc1cc(NC(=O)c2ccccc2)c(Cl)cc1N | inconclusive: 79.3% |
| COc1cc(C)cc(C(=O)O)c1C1=C(O)c2cccc(O)c2C(=O)C1=O | inconclusive: 122% |
| C/C(=N/OC(=O)C1CC1)c1cc(-c2ccc(Cl)cc2)no1 | inactive: 98.3% |
| O=C(c1ccc(O)cc1)c1ccc(C(=O)c2ccc(O)cc2)cc1 | inconclusive: 77.8% |

Among those listed so far, 3 contain a COOH group:

| SMILES | binding response (% of control) |
| --- | --- |
| O=C(O)CCC(=O)Nc1ccc(Br)cc1C(=O)c1ccccc1Cl | inconclusive: 168% |
| CCOc1cc(/C=C(/NC(C)=O)C(=O)O)cc(Cl)c1OCc1ccc(Br)cc1 | inconclusive: 64.3% |
| COc1cc(C)cc(C(=O)O)c1C1=C(O)c2cccc(O)c2C(=O)C1=O | inconclusive: 122% |

Continuation.

| SMILES | binding response (% of control) |
| --- | --- |
| CCOC(=O)C1(CC2CC2)CCN(C(=O)c2cccnc2C)CC1 | inactive: 102% |
| CC(C)CNC(=O)C1CCCN(C(=O)NCc2ccccc2)C1 (stereo not given) | inactive: 92.7% |
| COc1cccc(NC(=O)CN(C)C(C)C(=O)Nc2ccc(S(=O)(=O)N3CCOCC3)cc2)c1 (stereo not given) | inconclusive: 108% |
| C[C@@H]1CC=C[C@H]2[C@H]1C(=O)N(Cc1ccccc1)[C@H]2c1ccc2ccccc2c1Br | inconclusive: 104% |
| O=C(COC(=O)/C=C/c1cccc([N+](=O)[O-])c1)NCCCN1CCCC1=O | inconclusive: 60.4% |
| Cc1nn(-c2ccccc2)nc1CNC(=O)CC(C)(C)C | inconclusive: 174% |
| O=C(Nc1nnc(-c2ccncc2)o1)c1ccccc1 | inconclusive: 85.9% |
| CCC(C)Nc1nc(N)c([N+](=O)[O-])c(Nc2cc(OC)ccc2OC)n1 (stereo not given) | inconclusive: 401% |
| Cc1cc(N2CCN(C)CC2)nc2ccc(NC(=S)NCc3cccs3)cc12 | inconclusive: 110% |
| O=C(COC(=O)CNC(=O)c1ccc(Cl)cc1Cl)Nc1ccc(N2CCOCC2)cc1 | inconclusive: 117% |
| CCN(CC)C(=O)Oc1nnc(SC(C)C)n1-c1ccc(Cl)cc1 | inconclusive: 104% |
| CN1CCN(c2ccc(CNS(=O)(=O)c3cccc(F)c3)cc2)CC1 | inconclusive: 130% |
| Cn1c(=O)n(C)c2cc(/C=N/NC(=O)c3ccc(Cl)cc3)ccc21 | inconclusive: 77.1% |
| Cc1cccc2c1c1ccc3c(c1n2C)C(=O)C=CC3=O | inconclusive: 236% |
| CCCCC1=CC2=CC(=O)C(C)(OC(=O)CC)C(=O)C2=CN1C(CO)CO (stereo not given) | inconclusive: 121% |
| Cc1cccc(NS(=O)(=O)c2cc([N+](=O)[O-])ccc2C)n1 | inconclusive: 103% |
| COc1ccc2oc(C(=O)NCCC(C)C)c(C)c2c1 | inconclusive: 126% |
| O=c1[nH]cc(I)cc1I | inconclusive: 263% |
| C[n+]1ccccc1C1CCCC/C1=N\NC(N)=S (stereo not given) | inconclusive: 105% |
| COC(=O)[C@@]1(Cc2ccc(F)cc2)[C@H]2c3cc(C(=O)N(C)C)n(Cc4nc5ccccc5[nH]4)c3C[C@H]2CN1C(=O)c1ccccc1 | inactive: 104% |
| COc1ccc(N2CCN(C(=O)c3cc(-c4cccs4)nc4ccccc34)CC2)cc1 | inconclusive: 104% |
| O=C(O)c1ccccc1-c1ccc(/C=C/c2cc(C(F)(F)F)[nH]c(=O)n2)o1 | inconclusive: 109% |
| CC(C)[C@H](NS(=O)(=O)/C=C/c1ccccc1)C(=O)OCC(=O)NC(N)=O | inconclusive: 119% |

| SMILES | binding response (% of control) |
| --- | --- |
| CCOC(=O)c1c(/N=C/C2=C(O)CCCC2=O)sc2c1CCCC2 | inconclusive: 118% |
| CCOc1ccc(N2C(=O)S/C(=C\c3cc(OC)c(OC)c(OC)c3)C2=O)cc1 | inconclusive: 80.7% |
| CC(C)n1c(=O)[nH][nH]c1=S | inconclusive: 102% |
| Cc1cc(C)c(O)c(-c2cc(C(=O)NCCc3ccc(S(N)(=O)=O)cc3)[nH]n2)c1 | inconclusive: 91% |
| COC(=O)CCSCC(=O)N1N=C(c2ccc(Br)cc2)CC1c1cccc(OC)c1OC (stereo not given) | inactive: 98.9% |
| CCOC(=O)CCCNC(=O)CCNC(=O)c1ccc(OCC(C)C)cc1 | inconclusive: 102% |
| CCc1ccc2c(c1)c1nc(C)sc1n2CC(=O)OC | inactive: 102% |
| O=c1[nH]c2c(s1)C(c1cccnc1)C1C3CCC(C3)C1S2 (stereo not given) | inconclusive: 108% |
| O=C(COc1ccc(Br)cc1)Nc1nc(-c2cccnc2)cs1 | inconclusive: 1.43% |
| Cc1ccc(S(=O)(=O)NC(C)C(=O)Nc2cccc([N+](=O)[O-])c2)cc1 (stereo not given) | inconclusive: 100% |
| O=C(O)COCC(=O)N1CCN(C2c3ccccc3-c3ccccc32)CC1 | inconclusive: 121% |
| COc1ccc(-c2cc(C(=O)Nc3cc(S(=O)(=O)N4CCOCC4)ccc3N3CCOCC3)c3ccccc3n2)cc1 | inconclusive: 97.7% |
| CCC(=O)N/N=C(\C)CC(=O)Nc1ccccc1-c1ccccc1 | inactive: 97.6% |
| Nc1cccc(S(=O)(=O)NC2=NCCC2)c1 | inactive: 114% |
| COc1ccc(-c2nnn(-c3cc(Cl)cc(Cl)c3)c2N)cc1 | inconclusive: 104% |
| COCC(C)NC(=S)NC(=O)c1cc(S(=O)(=O)N2CCOCC2)ccc1C (stereo not given) | inconclusive: 110% |
| Cc1cc(-c2n[nH]c(=S)n2/N=C/c2c[nH]c3ccccc23)n[nH]1 | inconclusive: 105% |
| Fc1ccccc1Cc1noc(CN2CCN(c3ccc(Cl)cn3)CC2)n1 | inactive: 121% |
| CC1CCc2c(C(=O)Nc3ccccn3)csc2C1 (stereo not given) | inconclusive: 107% |
| Cc1[nH]ccc(=O)c1OCC(=O)O | inconclusive: 106% |
| CCN(CC)c1ccc(NC2CC(=O)N(CCc3ccc(OC)cc3)C2=O)cc1 (stereo not given) | inconclusive: 120% |
| C/C=C(/C)C(=O)Nc1cccc(C2=NOC3(C2)C[C@@H](C(N)=O)N(C(=O)[C@H]2CCC(=O)N2)C3)c1 (stereo not given in full) | inconclusive: 78.7% |
| C/C(CC(=O)Nc1ccc(Cl)cc1Cl)=N\NC(=O)c1ccncc1 | inconclusive: 100% |

| SMILES | binding response (% of control) |
| --- | --- |
| CCOc1ccc(-c2c[n+]3c(n2-c2ccccc2)CCCCC3)cc1 | inactive: 95.2% |
| CCN(CC)CCN1C(=O)c2cccc3cc(N)cc(c23)C1=O | inconclusive: 60.4% |
| Nc1nonc1OCCN1CCN(c2ccc([N+](=O)[O-])c3cccnc23)CC1 | inconclusive: 105% |
| CC(=O)COC(=O)CNC(=O)c1ccc(Br)cc1 | inactive: 137% |
| CN(CC(=O)Nc1ccccc1F)S(=O)(=O)c1ccc2c(c1)n(C)c(=O)c(=O)n2C | inconclusive: 114% |
| Cc1cc(Cl)ccc1N=c1ssnc1Cl | inactive: 107% |
| Cc1nnc(Sc2cc(C(=O)NCCCOC(C)C)c3ccccc3n2)s1 | inconclusive: 57.7% |
| Cc1ccccc1Oc1nc2c(C)cccn2c(=O)c1/C=C(\C#N)C(=O)NC1CCS(=O)(=O)C1 (stereo not given) | inconclusive: 238% |
| O=C(CSc1nnc2n1CCCN2)c1ccc([N+](=O)[O-])cc1 | inconclusive: 98.3% |
| COc1ccc(CCNC(=O)COc2ncnc3cc([N+](=O)[O-])ccc23)cc1 | inactive: 97.9% |
| CC(=O)Nc1ccc(NC(=O)COC(=O)c2ccccn2)cc1 | inactive: 111% |
| Cc1ccc(Oc2ncccc2NC(=O)CCCC(=O)O)c2c1CCC2 | inconclusive: 96.1% |
| Cc1ccc(NC(=O)c2ccc(CSc3ccccn3)cc2)c(O)c1 | inconclusive: 109% |
| CCc1nnc(NC(=O)C(CC)CC)s1 | inconclusive: 98.1% |
| Nc1c(Cl)cc(S(N)(=O)=O)cc1S(N)(=O)=O | inconclusive: 86.8% |
| Cc1cccc(OCCC(=O)NCC(=O)Nc2cccc(C)c2C)c1 | inactive: 99.2% |
| O=C(COC(=O)CCc1nc2ccccc2s1)NC(=O)NCc1ccco1 | inactive: 97.2% |
| CCOC(=O)c1ccc(NC(=O)/C=C/c2cccs2)cc1 | inconclusive: 96% |
| Cc1cc(C)c(C(=O)Cn2nc(C(=O)O)c3ccccc3c2=O)cc1C | inconclusive: 164% |
| O=C(Nc1ccc2c(c1)OCCO2)C1CCCN1S(=O)(=O)c1ccc(Cl)cc1 (stereo not given) | inactive: 101% |
| O=C(NCc1ccco1)C1CCN(c2ccc(S(=O)(=O)N3CCOCC3)cc2[N+](=O)[O-])CC1 | inconclusive: 113% |
